Test results reported in the supplement of paper PMC4604168 (melanoma cell lines).
The other results are listed elsewhere or left out. Single values are uncertain, as repeats are few or missing.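 The apoptosis fraction was the count of cleaved-PARP antibody-stained nuclei relative to all DNA-stained nuclei, imaged in 1,536-well plates. Screening doses were set so most cells survived, and baseline and induced cleaved-PARP levels vary greatly across cell lines.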

Key:
Assay in all cases: cleaved PARP positive nuclei fraction relative to DMSO control; melanoma cells; higher = more apoptosis
Details in all cases: library dose: low library concentration; 72 h
501Mel = test system: 501Mel
A101D = test system: A101D
A2058 = test system: A2058
A375 = test system: A375
C32 = test system: C32
CBRC008 = test system: CBRC008 (line from a melanoma biopsy)
CBRC013 = test system: CBRC013 (line from a melanoma biopsy)
CBRC014 = test system: CBRC014 (line from a melanoma biopsy)
CBRC016 = test system: CBRC016 (line from a melanoma biopsy)
CBRC017 = test system: CBRC017 (line from a melanoma biopsy)
COLO792 = test system: COLO792
COLO800 = test system: COLO800
COLO829 = test system: COLO829
G361 = test system: G361
IPC-298 = test system: IPC-298
IST-MEL1 = test system: IST-MEL1
LB2518-MEL = test system: LB2518-MEL
LOXIMVI = test system: LOXIMVI
MEL-HO = test system: MEL-HO

| SMILES | cleaved PARP positive nuclei fraction (501Mel) | cleaved PARP positive nuclei fraction (A101D) | cleaved PARP positive nuclei fraction (A2058) | cleaved PARP positive nuclei fraction (A375) | cleaved PARP positive nuclei fraction (C32) | cleaved PARP positive nuclei fraction (CBRC008) | cleaved PARP positive nuclei fraction (CBRC013) | cleaved PARP positive nuclei fraction (CBRC014) | cleaved PARP positive nuclei fraction (CBRC016) | cleaved PARP positive nuclei fraction (CBRC017) | cleaved PARP positive nuclei fraction (COLO792) | cleaved PARP positive nuclei fraction (COLO800) | cleaved PARP positive nuclei fraction (COLO829) | cleaved PARP positive nuclei fraction (G361) | cleaved PARP positive nuclei fraction (IPC-298) | cleaved PARP positive nuclei fraction (IST-MEL1) | cleaved PARP positive nuclei fraction (LB2518-MEL) | cleaved PARP positive nuclei fraction (LOXIMVI) | cleaved PARP positive nuclei fraction (MEL-HO) |
| --- | --- | --- | --- | --- | --- | --- | --- | --- | --- | --- | --- | --- | --- | --- | --- | --- | --- | --- | --- |
| C[C@]1(c2nc3c(C(N)=O)cccc3[nH]2)CCCN1 [Veliparib] + CC1(C)NC(=O)N(c2ccc([N+](=O)[O-])c(C(F)(F)F)c2)C1=O [nilutamide] (first compound 1.4 µM, partner dose 1 µM) | 81.6% | 64.6% | 309% | 67.1% | 186% | 156% | 184% | 90.8% | 54.1% | 90% | 88.1% | 128% | 20.5% | 37.2% | 62.7% | 44.7% | 50.4% | 95.2% | 71.4% |
| C=CCn1c(=O)c2cnc(Nc3ccc(N4CCN(C)CC4)cc3)nc2n1-c1cccc(C(C)(C)O)n1 + CN(C)S(=O)(=O)c1ccc2c(c1)/C(=C/c1cc3c([nH]1)CCCC3)C(=O)N2 [SU6656] (first compound 0.02 µM, partner dose 0.4 µM) | 198% | 117% | 70.7% | 217% | 83.6% | 91.7% | 135% | 122% | 34% | 88.5% | 115% | 137% | 105% | 138% | 23.5% | 86.7% | 56.7% | 131% | 200% |
| O=C(CCCCCCC(=O)Nc1ccccc1)NO [vorinostat] + NCC(=O)Nc1ccc(-n2nc(C(F)(F)F)cc2-c2ccc3c(ccc4ccccc43)c2)cc1 [OSU03012] (first compound 0.08 µM, partner dose 1 µM) | 494% | 81.9% | 109% | 3380% | 184% | 42.2% | 96.1% | 77.4% | 115% | 74.5% | 187% | 93.8% | 155% | 55% | 108% | 63.9% | 39.2% | 137% | 70.9% |
| Cc1ccc(NC(=O)c2cccc(N(C)C)c2)cc1NC(=O)c1ccc(O)cc1 + O=C(O)c1ccc(-c2c[nH]c3ncc(-c4ccccc4)cc23)cc1C1CCCC1 [GSK650394] (first compound 2 µM, partner dose 0.16 µM) | 105% | 265% | 40.4% | 82.1% | 73.9% | 135% | 60.4% | 122% | 309% | 127% | 157% | 95.3% | 56.1% | 74.2% | 118% | 210% | 103% | 45.1% | 135% |
| CO[C@@H]1[C@H](N(C)C(=O)c2ccccc2)C[C@H]2O[C@]1(C)n1c3ccccc3c3c4c(c5c6ccccc6n2c5c31)C(=O)NC4 [Midostaurin] + CN(C)S(=O)(=O)c1ccc2c(c1)/C(=C/c1cc3c([nH]1)CCCC3)C(=O)N2 [SU6656] (first compound 0.08 µM, partner dose 0.4 µM) | 92.3% | 102% | 113% | 455% | 166% | 235% | 116% | 125% | 163% | 108% | 128% | 125% | 72.1% | 99.1% | 99.8% | 101% | 50.3% | 38.3% | 129% |
| NC(=O)Nc1cc(-c2cccc(F)c2)sc1C(=O)N[C@H]1CCCNC1 + OCCn1cc(-c2cnc3nnn(Cc4ccc5ncccc5c4)c3n2)cn1 [PF04217903] (first compound 0.02 µM, partner dose 1 µM) | 69.6% | 103% | 47.1% | 459% | 122% | 53.2% | 78.1% | 95.4% | 87.7% | 109% | 49.9% | 72.9% | 79% | 85.9% | 40.1% | 90.8% | 42.8% | 179% | 150% |
| Nc1cccc2c1CN(C1CCC(=O)NC1=O)C2=O (stereo not drawn) [lenalidomide] + Cc1ccc(NC(=O)c2cccc(N(C)C)c2)cc1NC(=O)c1ccc(O)cc1 [ZM336372] (first compound 1 µM, partner dose 2 µM) | 101% | 81.7% | 89% | 81.6% | 93.6% | 93% | 101% | 80% | 64.3% | 87.7% | 90% | 77.9% | 104% | 126% | 139% | 107% | 54.2% | 49.1% | 65.8% |
| C[C@@H]1CCN(C(=O)CC#N)C[C@@H]1N(C)c1ncnc2[nH]ccc12 + COc1cc2c(Oc3ccc4[nH]c(C)cc4c3F)ncnc2cc1OCCCN1CCCC1 [cediranib] (first compound 1 µM, partner dose 0.4 µM) | 116% | 83.2% | 120% | 148% | 29.3% | 204% | 94.3% | 86.3% | 117% | 87.2% | 72.3% | 132% | 277% | 43.1% | 48.1% | 68.8% | 89.6% | 26.4% | 38.1% |
| C#Cc1cccc(Nc2ncnc3cc(OCCOC)c(OCCOC)cc23)c1 [erlotinib] + C[C@@H]1CCN(C(=O)CC#N)C[C@@H]1N(C)c1ncnc2[nH]ccc12 [CP690550] (first compound 0.8 µM, partner dose 1 µM) | 217% | 121% | 128% | 104% | 37% | 157% | 138% | 90.3% | 116% | 89.6% | 118% | 163% | 50.4% | 44.8% | 194% | 90% | 140% | 47.2% | 70.2% |
| C#Cc1cccc(Nc2ncnc3cc(OCCOC)c(OCCOC)cc23)c1 [erlotinib] + O=C(CCCCCCC(=O)Nc1ccccc1)NO [vorinostat] (first compound 0.8 µM, partner dose 0.08 µM) | 96.5% | 88% | 87.1% | 35.8% | 153% | 236% | 163% | 75.3% | 75.4% | 97.2% | 173% | 33.9% | 93.6% | 69.8% | 65.6% | 101% | 107% | 229% | 145% |
| Cn1nnc2c(C(N)=O)ncn2c1=O [temozolomide] + C[C@@H]1CCN(C(=O)CC#N)C[C@@H]1N(C)c1ncnc2[nH]ccc12 [CP690550] (first compound 2 µM, partner dose 1 µM) | 161% | 83.1% | 69.2% | 108% | 163% | 111% | 107% | 95.6% | 60.4% | 78.5% | 148% | 84.2% | 110% | 94.7% | 47.7% | 51.8% | 138% | 169% | 132% |
| C[C@]1(c2nc3c(C(N)=O)cccc3[nH]2)CCCN1 [Veliparib] + CN(NC(=O)CC(=O)NN(C)C(=S)c1ccccc1)C(=S)c1ccccc1 [STA4783] (first compound 1.4 µM, partner dose 0.006 µM) | 151% | 27.5% | 136% | 5700% | 220% | 1480% | 143% | 748% | 382% | 405% | 143% | 97.3% | 208% | 98.7% | 126% | 188% | 364% | 214% | 32.5% |
| CC(C)(C)c1cnc(CSc2cnc(NC(=O)C3CCNCC3)s2)o1 + NCC(=O)Nc1ccc(-n2nc(C(F)(F)F)cc2-c2ccc3c(ccc4ccccc43)c2)cc1 [OSU03012] (first compound 0.01 µM, partner dose 1 µM) | 520% | 49.6% | 79.2% | 5980% | 59.6% | 132% | 182% | 89.8% | 71.4% | 79.3% | 164% | 198% | 77.8% | 44.5% | 97.9% | 96.3% | 70.2% | 69.5% | 140% |
| OCCn1cc(-c2cnc3nnn(Cc4ccc5ncccc5c4)c3n2)cn1 + CN(C)S(=O)(=O)c1ccc2c(c1)/C(=C/c1cc3c([nH]1)CCCC3)C(=O)N2 [SU6656] (first compound 1 µM, partner dose 0.4 µM) | 84.4% | 41.7% | 73.7% | 20.2% | 274% | 177% | 100% | 85.1% | 121% | 98.7% | 115% | 48.7% | 61.5% | 106% | 98.6% | 157% | 94.2% | 41.8% | 26.6% |
| Cc1nc(Nc2ncc(C(=O)Nc3c(C)cccc3Cl)s2)cc(N2CCN(CCO)CC2)n1 [dasatanib] + CN(NC(=O)CC(=O)NN(C)C(=S)c1ccccc1)C(=S)c1ccccc1 [STA4783] (first compound 0.004 µM, partner dose 0.006 µM) | 206% | 340% | 145% | 3690% | 237% | 4420% | 84.9% | 505% | 45.3% | 170% | 375% | 93.7% | 161% | 157% | 47% | 89.4% | 147% | 145% | 165% |
| Clc1ccc(Nc2nnc(Cc3ccncc3)c3ccccc23)cc1 [vatalanib] + Cc1ccc(NC(=O)c2cccc(N(C)C)c2)cc1NC(=O)c1ccc(O)cc1 [ZM336372] (first compound 2 µM, partner dose 2 µM) | 86.7% | 77.6% | 129% | 242% | 149% | 386% | 91.7% | 144% | 147% | 76.2% | 133% | 20.4% | 102% | 125% | 56.6% | 105% | 154% | 151% | 188% |
| Nc1cccc2c1CN(C1CCC(=O)NC1=O)C2=O (stereo not drawn) [lenalidomide] + C[C@@H]1CCN(C(=O)CC#N)C[C@@H]1N(C)c1ncnc2[nH]ccc12 [CP690550] (first compound 1 µM, partner dose 1 µM) | 80.8% | 152% | 171% | 60.2% | 213% | 169% | 127% | 89.9% | 99.6% | 199% | 38.4% | 26.6% | 115% | 116% | 87.3% | 96.1% | 305% | 34% | 31.5% |

Just cleaved PARP positive nuclei fraction (C32), cleaved PARP positive nuclei fraction (A2058) and cleaved PARP positive nuclei fraction (A375), for some of the entries so far:
SMILES,cleaved PARP positive nuclei fraction (C32),cleaved PARP positive nuclei fraction (A2058),cleaved PARP positive nuclei fraction (A375)
"Nc1cccc2c1CN(C1CCC(=O)NC1=O)C2=O (stereo not drawn) [lenalidomide] + Cc1ccc(NC(=O)c2cccc(N(C)C)c2)cc1NC(=O)c1ccc(O)cc1 [ZM336372] (first compound 1 µM, partner dose 2 µM)",93.6%,89%,81.6%
"C[C@@H]1CCN(C(=O)CC#N)C[C@@H]1N(C)c1ncnc2[nH]ccc12 + COc1cc2c(Oc3ccc4[nH]c(C)cc4c3F)ncnc2cc1OCCCN1CCCC1 [cediranib] (first compound 1 µM, partner dose 0.4 µM)",29.3%,120%,148%
